{"source": "paper PMC6599804", "about": "“N^ɛ-acetyl lysine derivatives with zinc binding groups as novel HDAC inhibitors” (Royal Society Open Science, 2019)", "test_system": "HDACⅠ", "experiment": "HDAC subtype selectivity assay with subtype substrate, HDACⅠ", "assay_type": "biochemical, human", "conditions": "1μM; from table S1", "source_text": "against both tumor cells and normal cells, then calculate and compare their selective index.” […]\nof Supporting Information.\nReponses to Reviewer 2’s comments\nReviewer 2 is also very positive about the manuscript. We thank the reviewer for the helpful comments and careful reading of the manuscript. Our changes and/or responses are detailed below.\nComment 1: “Should add some discussion about whether the synthesized compounds intend to be pan- or specific- HDAC inhibitors.”\nS1 of Supporting Information.\nComment 2: “ The cellular data is just described for the acetylation level of tubulin which is only relevant […]\nAnd then incubation at 37℃ for 1h, the mixture was stopped by the addition of 50 μL of Buffer B (200mM HCl/300 mM Acetic acid), fluorescence intensity was measured using a microplate reader at excitation and emission wavelengths of 360 nm and 460 nm. The inhibition ratios were calculated from the fluorescence intensity readings of tested wells relative to those of control wells, […]\nThe rate of cell survival under the action of test substances was evaluated by an improved MTS assay as previously described. […]\n48 hours 5ul of MTS reagent solution was added into each well and the cells were incubated for another 4 hours at 37℃ under 5% CO2 environment. The absorbance was measured at 490 nm in […]", "note": "“Also recorded” adds a separate entry of the source."}
{"compound": "O=C(CCCCCCC(=O)NCCCC[C@H](NC(=O)OCc1ccccc1)C(=O)Nc1ccccc1)NO", "note": "[Compound 18c]", "values": [{"measurement": "inhibitory selectivity between HDAC I and HDAC II (pan- or specific HDAC inhibitor)", "result": "no obviously inhibitory selectivity; also recorded: pan-HDAC inhibitors"}]}
